No constants are given. Whether binding was seen depends on the method and setting. In cells and extracts the contact can be indirect. A yes stands for co-enrichment or nearness to the bait. Other partners may have been found. For some of these results: Tags and fused reporters may be left off the sequences shown. Blank lines part the entries; values can stand above or below the binder they belong to.
How the values were obtained:
Experiment in all cases: affinity purification with mass spectrometry; 10-30 ug of HIS- or GST-tagged bait immobilised on 2 mg cobalt or glutathione magnetic beads, incubated with 4 ml P. abyssi protein extract 3 h at 4°C, washed with PBS; two assays for each bait, without (nuc-) and with (nuc+) DNAse/RNAse treatment of the purified complexes; preys identified by LC-MS/MS; only the target purified
[1] = biological target: T1, RadB (Q9V2F6), HIS-tagged bait (Pyrococcus abyssi) (UniProt Q9V2F6)
T1 sequence: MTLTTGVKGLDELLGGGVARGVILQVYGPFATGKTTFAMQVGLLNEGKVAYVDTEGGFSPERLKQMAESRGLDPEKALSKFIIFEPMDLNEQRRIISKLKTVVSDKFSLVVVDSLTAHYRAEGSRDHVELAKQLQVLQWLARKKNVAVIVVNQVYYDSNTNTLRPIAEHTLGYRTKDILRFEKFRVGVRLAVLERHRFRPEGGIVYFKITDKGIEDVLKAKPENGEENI

Chains of the proteins cited; added tags and fusions are not shown. Lines headed by an entry give the natural chain unless they say otherwise; changes in a name come on top.
UniProt Q9UYX9: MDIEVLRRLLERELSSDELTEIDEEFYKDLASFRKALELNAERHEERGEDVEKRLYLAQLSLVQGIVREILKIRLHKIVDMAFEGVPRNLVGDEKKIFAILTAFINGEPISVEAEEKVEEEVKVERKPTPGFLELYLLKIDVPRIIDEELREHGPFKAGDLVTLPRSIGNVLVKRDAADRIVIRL

[2] = biological target: T2, Primase small subunit P41 (Q9V292), HIS-tagged (Pyrococcus abyssi) (UniProt Q9V292)
T2 sequence: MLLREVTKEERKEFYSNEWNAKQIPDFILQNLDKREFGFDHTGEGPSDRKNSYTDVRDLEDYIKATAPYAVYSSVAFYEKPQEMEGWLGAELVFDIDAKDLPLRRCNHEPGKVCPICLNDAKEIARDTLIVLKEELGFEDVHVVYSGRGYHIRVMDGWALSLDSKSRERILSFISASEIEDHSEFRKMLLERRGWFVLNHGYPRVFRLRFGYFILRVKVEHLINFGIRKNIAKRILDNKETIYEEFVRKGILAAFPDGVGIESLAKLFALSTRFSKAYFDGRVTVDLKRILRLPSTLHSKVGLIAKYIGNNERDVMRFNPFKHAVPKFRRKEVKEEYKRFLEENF

[3] = biological target: T3, PCNA (Q9UYX8), HIS-tagged bait (Pyrococcus abyssi) (UniProt Q9UYX8)
T3 sequence: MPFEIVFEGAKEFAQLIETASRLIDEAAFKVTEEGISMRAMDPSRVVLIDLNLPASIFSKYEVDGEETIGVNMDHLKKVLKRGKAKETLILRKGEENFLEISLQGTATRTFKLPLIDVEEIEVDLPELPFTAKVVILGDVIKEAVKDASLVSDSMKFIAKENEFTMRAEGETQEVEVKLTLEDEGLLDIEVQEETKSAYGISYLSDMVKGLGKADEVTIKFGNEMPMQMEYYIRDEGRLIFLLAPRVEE

[4] = biological target: Gins 51 (Q9UYX9), HIS-tagged bait (Pyrococcus abyssi) (UniProt Q9UYX9)

binding [1]: binds
binding [2]: binds
B1: DNA ligase, endogenous (enzyme, UniProt P0CL74 1-559)
chain: MRYIELAQLYQKLEKTTMKLIKTRLVADFLKKVPEDHLEFIPYLILGDVFPEWDERELGVGEKLLIKAVSMATGIDSKEIENSVKDTGDLGESIALAVKRRKQKSFFSQPLTIKRVYQTLVKVAETTGEGSQDKKMKYLANLFMDAEPIEAKYIARTVLGTMRTGVAEGLLRDAISLAFNVKVELVERAYMLTSDFGFVAKIAKTEGNDGLAKVTIQIGKPIKPMLAQQAANIKEALLEMGGEAEFEIKYDGARVQVHKDGEKVTIYSRRLENVTRAIPEIVEAIKEALKPAKAIVEGELVAIGEDGRPLPFQYVLRRFRRKYNIEEMMEKIPLELNLFDVLYVDGVSLIDTKFMERRKKLEEIVEANGKVKIAENLITKNVEEAEQFYKRALEMGHEGLMAKRLDAIYEPGNRGKKWLKIKPTMENLDLVIIGAEWGEGRRAHLLGSFILGAYDPETGEFLEVGKVGSGFTDDDLVEFTKMLRPLIIKEEGKRVWIQPKVVIEVTYQEIQKSPKYRSGFALRFPRYVALREDKGPEDADTIERIAQLYELQERMKGKV

binding [3]: binds
B2: NucS, endogenous (enzyme, UniProt Q9V2E8 1-251)
chain: MRKVIIKENPSEEEIKELLDLAEKHGGVVTIFARCKVHYEGRAKSELGEGDRIIIIKPDGSFLIHQNKKREPVNWQPPGSKVTFKENSIISIRRRPYERLEVEIIEPYSLVVFLAEDYEELALTGSEAEMANLIFENPRVIEEGFKPIYREKPIRHGIVDVMGVDKDGNIVVLELKRRKADLHAVSQLKRYVDSLKEEYGENVRGILVAPSLTEGAKKLLEKEGLEFRKLEPPKKGNEKRSKQKTLDFFTP

binding [4]: binds
B3: exonuclease subunit of the DNA polymerase D, endogenous (protein, UniProt Q9V2F3 1-619)
chain: MDELVKALERAGYLLTPSAYYLLVDHFKEGKFSLVELVKFAKSKGVFIIDGDLAYEFLQFLGLGVPQEIKESYISTGEEAEKTVESQETRASELEEGGVSQVSSGELQELKEESPEISTTEEEIGGLELVQSSISTGSEVEYNNGENGESVVVLDKYGYPILYAPEEIGEEKEYSKYEDVVIEWNPSVTPVQIEKNYEVKFDVRQVKLRPPKVKNGSGKEGEIIVEAYASLFKSRLSKLKRILRENPEISNVVDIGKLNYVSGDEEVTIIGLVNSKRETNRGLIFEVEDKTGIVKVFLPKDSEDYREAFKVLPDAVVAFKGFYSKKGIFFANKFYLPDVPLYRKQKPPLEEKVYAILISDIHVGSREFCEKAFLKFLEWLNGHVESKEEEEIVSRVKYLIIAGDVVDGIGIYPGQYSDLVIPDIFDQYEALANLLANVPEHITMFIGPGNHDAARPAIPQPEFYKEYAKPIYKLKNAIIISNPAVIRLHGRDFLIAHGRGIEDVVSFVPGLTHHKPGLPMVELLKMRHLAPTFGGKVPIAPDPEDLLVIEEVPDLVQMGHVHVYDAVVYRGVQLVNSATWQAQTEFQKMVNIVPTPAKVPVVDVESARVVKVLDFSGWC
